Results from PMC7156710.
For at least one entry, the source does not settle the construct or the ends of the probe. For some of these results: Weaker means in comparison with the reference protein, sequence or condition of that experiment. For some of these results: The direction of at least one scale is not stated here.

Protein sequences, listed by entry. Tags and fused reporters are not part of them. Residues count along the entry.
UniProt P48431, 40-123: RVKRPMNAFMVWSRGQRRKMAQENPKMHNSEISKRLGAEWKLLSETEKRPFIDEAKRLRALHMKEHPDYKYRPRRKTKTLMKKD
UniProt P48431, 40-123 F48A: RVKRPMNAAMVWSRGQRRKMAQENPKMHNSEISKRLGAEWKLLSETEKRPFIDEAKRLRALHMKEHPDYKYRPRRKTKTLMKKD
UniProt P48431, 40-123 W79A: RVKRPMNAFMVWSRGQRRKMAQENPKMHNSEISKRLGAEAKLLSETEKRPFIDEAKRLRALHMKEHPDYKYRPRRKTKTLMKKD
UniProt P48431, 40-123 R56A: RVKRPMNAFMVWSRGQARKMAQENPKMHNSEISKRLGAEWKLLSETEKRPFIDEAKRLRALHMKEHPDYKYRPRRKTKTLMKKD
UniProt P48431, 40-123 R43A: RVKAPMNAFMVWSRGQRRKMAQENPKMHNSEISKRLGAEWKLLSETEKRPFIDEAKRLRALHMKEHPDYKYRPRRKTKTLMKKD
UniProt P48431, 40-123 M49A: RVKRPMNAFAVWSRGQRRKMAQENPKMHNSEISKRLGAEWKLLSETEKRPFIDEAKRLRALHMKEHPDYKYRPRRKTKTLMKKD
UniProt P48431, 40-123 H105A: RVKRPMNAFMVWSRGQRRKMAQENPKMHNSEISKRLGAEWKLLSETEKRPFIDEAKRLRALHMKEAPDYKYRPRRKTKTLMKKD
UniProt P48431, 40-123 W51A: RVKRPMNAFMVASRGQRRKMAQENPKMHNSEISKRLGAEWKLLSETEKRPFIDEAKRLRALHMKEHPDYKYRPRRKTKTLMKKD
UniProt P48431, 40-123 H101A: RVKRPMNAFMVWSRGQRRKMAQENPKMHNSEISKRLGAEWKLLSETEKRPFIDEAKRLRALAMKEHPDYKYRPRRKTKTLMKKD
UniProt P48431, 40-123 N46A: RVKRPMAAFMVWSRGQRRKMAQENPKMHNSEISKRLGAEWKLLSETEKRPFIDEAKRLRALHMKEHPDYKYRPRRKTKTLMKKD
UniProt P48431, 40-123 K115A: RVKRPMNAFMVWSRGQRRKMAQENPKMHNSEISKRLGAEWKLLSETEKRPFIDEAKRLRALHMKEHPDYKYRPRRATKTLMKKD
UniProt P48431, 40-123 Y110A: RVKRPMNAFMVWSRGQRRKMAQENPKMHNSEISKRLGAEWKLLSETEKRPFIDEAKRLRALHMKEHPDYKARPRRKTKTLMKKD

Tests used:
Sox2-HMG (Homo sapiens) [1] = biological target: Sox2-HMG (Homo sapiens) (UniProt P48431); test: fluorescence anisotropy; conditions: 10 mM Tris-HEPES pH 7.5, 135 mM KCl, 15 mM NaCl, 1 mM DTT, 8% Ficoll, 0.05% NP-40, 0.1 mg/mL BSA, 2 nM DNA or 3 nM RNA, room temperature (stated for competition), recombinant protein, residues 40-123, protein details: N-terminal His6, thrombin cleaved
Sox2-HMG (Homo sapiens) [2] = biological target: Sox2-HMG (Homo sapiens) (UniProt P48431); test: competition with a labelled probe; conditions: unlabeled DNA vs labeled Loop B/Bulge(0+1) RNA; 10 mM Tris-HEPES pH 7.5, 135 mM KCl, 15 mM NaCl, 1 mM DTT, 8% Ficoll, 0.05% NP-40, 0.1 mg/mL BSA; 2 nM DNA or 3 nM RNA; room temperature (stated for competition); recombinant protein; residues 40-123; protein details: N-terminal His6, thrombin cleaved; label: FAM
Sox2-HMG (Homo sapiens) [3] = biological target: Sox2-HMG (Homo sapiens) (UniProt P48431); test: NMR HSQC; conditions: 10 mM Tris-HEPES pH 7.5, 135 mM KCl, 15 mM NaCl, 1 mM DTT, 8% Ficoll, 0.05% NP-40, 0.1 mg/mL BSA; 2 nM DNA or 3 nM RNA; room temperature (stated for competition); recombinant protein; residues 40-123; protein details: N-terminal His6, thrombin cleaved; label: FAM
[4] = biological target: Sox2-HMG F48A (Homo sapiens) (UniProt P48431); test: fluorescence anisotropy; conditions: 10 mM Tris-HEPES pH 7.5, 135 mM KCl, 15 mM NaCl, 1 mM DTT, 8% Ficoll, 0.05% NP-40, 0.1 mg/mL BSA; 2 nM DNA or 3 nM RNA; room temperature (stated for competition); recombinant protein; residues 40-123; protein details: His6; label: FAM
[5] = biological target: Sox2-HMG W79A (Homo sapiens) (UniProt P48431); test: fluorescence anisotropy; conditions: 10 mM Tris-HEPES pH 7.5, 135 mM KCl, 15 mM NaCl, 1 mM DTT, 8% Ficoll, 0.05% NP-40, 0.1 mg/mL BSA; 2 nM DNA or 3 nM RNA; room temperature (stated for competition); recombinant protein; residues 40-123; protein details: His6; label: FAM
[6] = biological target: Sox2-HMG R56A (Homo sapiens) (UniProt P48431); test: fluorescence anisotropy; conditions: 10 mM Tris-HEPES pH 7.5, 135 mM KCl, 15 mM NaCl, 1 mM DTT, 8% Ficoll, 0.05% NP-40, 0.1 mg/mL BSA; 2 nM DNA or 3 nM RNA; room temperature (stated for competition); recombinant protein; residues 40-123; protein details: His6; label: FAM
[7] = biological target: Sox2-HMG R43A (Homo sapiens) (UniProt P48431); test: fluorescence anisotropy; conditions: 10 mM Tris-HEPES pH 7.5, 135 mM KCl, 15 mM NaCl, 1 mM DTT, 8% Ficoll, 0.05% NP-40, 0.1 mg/mL BSA; 2 nM DNA or 3 nM RNA; room temperature (stated for competition); recombinant protein; residues 40-123; protein details: His6; label: FAM
[8] = biological target: Sox2-HMG M49A (Homo sapiens) (UniProt P48431); test: fluorescence anisotropy; conditions: 10 mM Tris-HEPES pH 7.5, 135 mM KCl, 15 mM NaCl, 1 mM DTT, 8% Ficoll, 0.05% NP-40, 0.1 mg/mL BSA; 2 nM DNA or 3 nM RNA; room temperature (stated for competition); recombinant protein; residues 40-123; protein details: His6; label: FAM
[9] = biological target: Sox2-HMG H105A (Homo sapiens) (UniProt P48431); test: fluorescence anisotropy; conditions: 10 mM Tris-HEPES pH 7.5, 135 mM KCl, 15 mM NaCl, 1 mM DTT, 8% Ficoll, 0.05% NP-40, 0.1 mg/mL BSA; 2 nM DNA or 3 nM RNA; room temperature (stated for competition); recombinant protein; residues 40-123; protein details: His6; label: FAM
[10] = biological target: Sox2-HMG W51A (Homo sapiens) (UniProt P48431); test: fluorescence anisotropy; conditions: 10 mM Tris-HEPES pH 7.5, 135 mM KCl, 15 mM NaCl, 1 mM DTT, 8% Ficoll, 0.05% NP-40, 0.1 mg/mL BSA; 2 nM DNA or 3 nM RNA; room temperature (stated for competition); recombinant protein; residues 40-123; protein details: His6; label: FAM
[11] = biological target: Sox2-HMG H101A (Homo sapiens) (UniProt P48431); test: fluorescence anisotropy; conditions: 10 mM Tris-HEPES pH 7.5, 135 mM KCl, 15 mM NaCl, 1 mM DTT, 8% Ficoll, 0.05% NP-40, 0.1 mg/mL BSA; 2 nM DNA or 3 nM RNA; room temperature (stated for competition); recombinant protein; residues 40-123; protein details: His6; label: FAM
[12] = biological target: Sox2-HMG N46A (Homo sapiens) (UniProt P48431); test: fluorescence anisotropy; conditions: 10 mM Tris-HEPES pH 7.5, 135 mM KCl, 15 mM NaCl, 1 mM DTT, 8% Ficoll, 0.05% NP-40, 0.1 mg/mL BSA; 2 nM DNA or 3 nM RNA; room temperature (stated for competition); recombinant protein; residues 40-123; protein details: His6; label: FAM
[13] = biological target: Sox2-HMG K115A (Homo sapiens) (UniProt P48431); test: fluorescence anisotropy; conditions: 10 mM Tris-HEPES pH 7.5, 135 mM KCl, 15 mM NaCl, 1 mM DTT, 8% Ficoll, 0.05% NP-40, 0.1 mg/mL BSA; 2 nM DNA or 3 nM RNA; room temperature (stated for competition); recombinant protein; residues 40-123; protein details: His6; label: FAM
[14] = biological target: Sox2-HMG Y110A (Homo sapiens) (UniProt P48431); test: fluorescence anisotropy; conditions: 10 mM Tris-HEPES pH 7.5, 135 mM KCl, 15 mM NaCl, 1 mM DTT, 8% Ficoll, 0.05% NP-40, 0.1 mg/mL BSA; 2 nM DNA or 3 nM RNA; room temperature (stated for competition); recombinant protein; residues 40-123; protein details: His6; label: FAM

| Sequence | Kd (Sox2-HMG (Homo sapiens) [1]; label: 3' fluorescein) | Kd (Sox2-HMG (Homo sapiens) [1]; label: FAM) | further results |
| --- | --- | --- | --- |
| AUACAACAUACAACAUACAACAUACAACAUACAACA [env8 ssRNA] | 500 nM |  |  |
| CGCGCACTACAGCCCGGGT (double strand) [CCND1_SM6 dsDNA] |  | 24 nM |  |
| CGCGCATTTGTACCCGGGT (double strand) [DPPA4 enhancer dsDNA] |  | 3.4 nM |  |
| CGCGCCATTGTGCCCGGGT (double strand) [SOX2 enhancer dsDNA] |  | 0.9 nM |  |
| CGCGCCCTCTTCCCCGGGT (double strand) [CCND1_SM1 dsDNA] |  | 9.8 nM |  |
| CGCGCCTTTGTTCCCGGGT (double strand) [FGF4 enhancer dsDNA] |  | 0.9 nM | Ki (Sox2-HMG (Homo sapiens) [2]): 1 nM; binding result (Sox2-HMG (Homo sapiens) [3]): binds; binding result [4]: binds more weakly; binding result [5]: binds more weakly; binding result [6]: binds more weakly; binding signal [7]: 10 Kd mut/wt; binding result [8]: binds more weakly; binding result [9]: binds; binding result [10]: binds more weakly; binding result [11]: binds; binding signal [12]: 10 Kd mut/wt; binding signal [13]: 5.8 Kd mut/wt; binding signal [14]: 10 Kd mut/wt |
| GCGAAGGUGGCGGAAUUGGUAGACGCGCUAGCUUCAGGUGUUAGUGUCCUUACGGACGUGGGGGUUCAAGUCCCCCCCCUCGCACCAGGAUCU [tRNALeu(CAG)] | 27 nM |  |  |
| GGAAGAAGUGAAAUCACUAUAUUUAGAAACGAAUGCUACCAUCCCACCCCAACUACAUGUUCAGGUUAAAUGCGUGCACAUCCUGGUAG [ES2 1-89] | 22 nM |  |  |
| GGAAGAAGUGAAAUCACUAUAUUUAGAAACGAAUGCUACCAUCCCACCCCAACUACAUGUUCAGGUUAAAUGCGUGCACAUCCUGGUAGCUGGAACAUCUGUUUCUAGCUUGUUGUUCCUCUUGGCUGCUUUUCAAUUGGAUUUCCUCGAGCAGGUCCCAGGCUUGUCACUGCAGCCA [ES2 1-178] | 30 nM |  |  |
| GGACAUAUAAUCGCGUGGAUAUGGCACGCAAGUUUCUACCGGGCACCGUAAAUGUCCGACUAUGUCC [xpt-pbuX riboswitch] | 26 nM |  |  |
| GGAUCAUGCGGGCGAAAGUCUGUACCUCUCC [Loop B, P1(3bp)] | 10 nM |  |  |
| GGCUGGAACAUCUGUUUCUAGCUUGUUGUUCCUCUUGGCUGCUUUUCAAUUGGAUUUCCUCGAGCAGGUCCCAGGCUUGUCACUGCAGCCA [ES2 89-178] | 13 nM |  |  |
| GGCUGGAACAUCUGUUUCUAGCUUGUUGUUCCUCUUGGCUGCUUUUCAAUUGGAUUUCCUCGAGCAGGUCCCAGGCUUGUCACUGCAGCCAGGGUCUGUUAACCAUCACCACUGGUUCUACAUUAAGUAGGAGGUUCAGGGCUAAGCUAAUAACUCGCCUGCCUUUCUGACUGAUCACAG [ES2 89-267] | 32 nM |  |  |
| GGGUCUGUUAACCAUCACCACUGGUUCUACAUUAAGUAGGAGGUUCAGGGCUAAGCUAAUAACUCGCCUGCCUUUCUGACUGAUCACAG [ES2 179-267] | 12 nM |  |  |
| GGGUCUGUUAACCAUCACCACUGGUUCUACAUUAAGUAGGAGGUUCAGGGCUAAGCUAAUAACUCGCCUGCCUUUCUGACUGAUCACAGUGAUGUUCGCCGUGGCCACUUAUCAUGCGGGCUCCUUUGGGAGGGUGCUCUUCUUUGUCUGUACCUCUGGGUGGAAAGGGCGAAUUC [ES2 179-354] | 11 nM |  |  |
